Source: PubChem BioAssay AID2685 (National Center for Advancing Translational Sciences (NCATS), 2010)
Some of the results follow. The main result of the screen is listed elsewhere. These columns were measured beside it and carry no call. Compounds called inactive in the main read-out are mostly missing here. The note in brackets gives the kind of curve behind each potency; many fits are weak.

Experiment: qHTS Assay for Lipid Storage Modulators in Drosophila S3 Cells;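 for cell number change: cells counted by Cell Tracker Red CMTPX staining in the red channel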
Conditions: BODIPY lipid droplet fluorescence, 18-24 h; for cell number change: measured here: cell count max response, cells fed with added oleic acid
Method in brief: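 Drosophila S3 cells loaded with oleic acid (400 uM, as added) and compounds at several concentrations; lipid droplets imaged by 488-nm laser-scanning cytometry, 500–530 nm intensity and object ratio to cell channel. Percent activity normalized to 20 uM Triacsin C.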

[1] = measured here: lipid fluorescence (Fed channel) AC50, cells fed with added oleic acid
[2] = measured here: cell number channel AC50, cells fed with added oleic acid

| SMILES | cell number change | AC50 [1] | AC50 [2] |
| --- | --- | --- | --- |
| Cc1ccc(N2CC(C(=O)NCCS(=O)(=O)N3CCN(c4ccccc4)CC3)CC2=O)cc1 (stereo unspecified) | 9.25% | – | – |
| COc1cc(OC)c(OC)cc1CNC(=O)c1ccc(S(=O)(=O)N2CCCCC2)cc1 | 1.65% | – | – |
| COc1cccc(OCC(=O)NC2CCCCC2)c1 | 6.98% | 29100 nM [rising, single point] | – |
| Cc1cc(C(=O)OCC(=O)NNC(=O)c2cccs2)ccc1[N+](=O)[O-] | -3% | – | – |
| O=C(CN1C(=O)S/C(=C\c2ccc(Cl)cc2)C1=O)NC1C=CS(=O)(=O)C1 (stereo unspecified) | -5.81% | 29100 nM [falling, partial curve, poor fit] | – |
| CCC1Oc2ccccc2N(CC(=O)NCCN2CCc3ccccc3C2)C1=O (stereo unspecified) | 19.5% | 3660 nM [rising, partial curve] | – |
| Cc1ccc(-n2nc3c(N4CCC(C(=O)N5CCN(C)CC5)CC4)nnc(C)c3c2C)cc1 | -1.49% | 116 nM [falling, full curve, poor fit] | – |
| COc1ccc(CNC(=S)NCc2ccc(Cl)cc2)cc1OC | 16.4% | 18400 nM [rising, partial curve, poor fit] | – |
| O=C(O)c1ccc(-n2c(-c3cc(C4CC4)[nH]n3)n[nH]c2=S)cc1 | -2% | 259 nM [falling, full curve, poor fit] | – |
| COc1ccc(CCNC(=O)c2cc(S(=O)(=O)N3CCCC3)cn2C)cc1OC | -29.7% | 6510 nM [falling, single point] | – |
| COC(=O)c1ccc(NC(=O)C2CCCN2C(=O)Nc2cccc(C(C)=O)c2)cc1 (stereo unspecified) | 23% | 23100 nM [rising, partial curve] | – |
| COc1ccc(S(=O)(=O)N2CCCC(C(=O)N3CCOCC3)C2)cc1OC (stereo unspecified) | -5.13% | – | – |
| CCC1(c2ccccc2)NC(=O)N(CC(=O)Nc2ccc(S(=O)(=O)NC3=NCCCCC3)cc2)C1=O (stereo unspecified) | -75% | 651 nM [rising, single point] | 32600 nM [falling, partial curve, poor fit] |
| COc1ccc(/C=N/NC(=O)c2ccccc2OC)cc1COc1ccc(C)cc1 | – | 3660 nM [rising, full curve] | – |
| COCCCNc1nc2ccccc2nc1NS(=O)(=O)c1ccc(F)cc1 | 26% | 366 nM [rising, full curve] | – |
| COc1ccc(-c2noc(Cn3cc(S(=O)(=O)N4CCCC4)ccc3=O)n2)cc1 | -7.9% | 14600 nM [rising, partial curve] | 116 nM [falling, full curve, poor fit] |
| O=S(=O)(c1ccc(Br)s1)N1CCN(c2ccnc3cc(Cl)ccc23)CC1 | -17.6% | 29100 nM [falling, single point] | – |
| O=C(Nc1nc2nc(-c3ccccc3)cc(-c3ccccc3)n2n1)c1ccco1 | – | – | 20.6 nM [rising, full curve, poor fit] |
| Nn1cnnc1SC1CCCCC1NS(=O)(=O)c1ccccc1 (stereo unspecified) | – | 291 nM [rising, partial curve, poor fit] | – |

| SMILES | cell number change | AC50 [1] | AC50 [2] |
| --- | --- | --- | --- |
| Cc1ccc(CCNC(=O)c2coc3nc4ccccc4nc23)cc1 | 9.96% | – | 92 nM [rising, full curve, poor fit] |
| CCOC(=O)C(=O)Nc1ccc(S(=O)(=O)Nc2ncccn2)cc1 | -38.1% | 2590 nM [falling, full curve] | 3660 nM [falling, full curve] |
| O=C(O)CCC(=O)N1N=C(c2ccc(Br)cc2)CC1c1cccs1 (stereo unspecified) | -49.4% | – | 16400 nM [falling, single point] |
| COC(=O)c1c(NC(=O)C2Cc3ccccc3C(=O)O2)sc2c1CCCC2 (stereo unspecified) | 4.71% | – | – |
| CCCNC(=O)NNC(=O)c1ccc(F)cc1 | -13.8% | 2060 nM [falling, single point] | – |
| CN(C)c1ccc(C(C(=O)NCC2CCCO2)N(Cc2ccco2)C(=O)c2snc(C(N)=O)c2N)cc1 (stereo unspecified) | 3.85% | 65.1 nM [rising, partial curve] | – |
| CCOc1cc(CNS(=O)(=O)c2ccc3c(c2)CC(=O)N3C)cc(OCC)c1OCC | – | 366 nM [rising, single point] | – |
| Cn1c(=O)c2c(ncn2CC(=O)N2CCN(S(=O)(=O)c3ccccc3)CC2)n(C)c1=O | 5.22% | 501 nM [rising, full curve, poor fit] | – |
| c1ccc2c(c1)nc1n2CCN1CCN1CCCC1 | 2.24% | 4.61 nM [rising, full curve, poor fit] | – |
| COC(=O)[C@@]12CCCN1[C@H](c1ccc(-c3ccc(OC)cc3)cc1)[C@@H]1C(=O)N(C)C(=O)[C@@H]12 | -16.4% | 580 nM [falling, full curve, poor fit] | – |
| Cc1nnc(SCC(=O)NC(C)(C)C)n1NCc1c(F)cccc1Cl | 29.4% | 4.61 nM [rising, full curve] | – |
| CC(C)C1C(C#N)=C(N)Oc2n[nH]c(-c3ccccc3)c21 (stereo unspecified) | -31.5% | 29100 nM [falling, single point] | 18400 nM [falling, single point] |
| CCOC(=O)c1ccc(NC(=S)NN2CCN(C)CC2)cc1 | -12.4% | 11600 nM [falling, partial curve] | 6510 nM [falling, single point] |
| O=C(NCc1cccs1)c1ccc(CS(=O)(=O)c2ccc(Cl)cc2)o1 | – | 411 nM [rising, partial curve, poor fit] | 731 nM [rising, full curve] |
| O=C(COc1ccc(/C=C\[N+](=O)[O-])cc1)N1CCOCC1 | -91.9% | 29100 nM [falling, single point] | 29100 nM [falling, single point] |
| O=C(CC(c1ccccc1)c1cc(Br)ccc1O)N1CCCC1 (stereo unspecified) | -43.8% | 708 nM [falling, full curve] | – |
| CCS(=O)(=O)n1nc(-c2cccnc2)nc1NCc1ccc(F)cc1 | 17.3% | 65.1 nM [rising, full curve, poor fit] | – |
| CCOC(=O)C1=C(O)/C(=C/c2ccc(OCC(=O)O)c(OCC)c2)SC1=Nc1ccc(C)cc1 | 12.4% | 2060 nM [rising, single point] | – |

Part of the list above, reformatted.
SMILES,cell number change,AC50 [1],AC50 [2]
CCOC(=O)C(=O)Nc1ccc(S(=O)(=O)Nc2ncccn2)cc1,-38.1%,"2590 nM [falling, full curve]","3660 nM [falling, full curve]"
O=C(O)CCC(=O)N1N=C(c2ccc(Br)cc2)CC1c1cccs1 (stereo unspecified),-49.4%,–,"16400 nM [falling, single point]"
